Experimental data published in PMC3757082.
Results are given in words; binding and its absence hold for the method and conditions named. For some of these results: Binding seen in cells or lysates may run through a third protein. Some binding calls cover weakened binding; strength is not graded here. For some of these results: Tags and fused reporters may be left off the sequences shown.

T1: HA-RITF1 (Arabidopsis thaliana) (UniProt Q9C8Z9)
T1 sequence: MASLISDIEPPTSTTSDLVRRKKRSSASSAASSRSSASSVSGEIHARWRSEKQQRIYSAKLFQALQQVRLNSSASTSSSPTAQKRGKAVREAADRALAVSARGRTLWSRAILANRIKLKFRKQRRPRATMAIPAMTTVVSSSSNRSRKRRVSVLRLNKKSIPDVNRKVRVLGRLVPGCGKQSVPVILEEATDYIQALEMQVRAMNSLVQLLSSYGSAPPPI

T2: RSA1, bait RSA1-pDEST32 (Arabidopsis thaliana) (UniProt F4IS91)
T2 sequence: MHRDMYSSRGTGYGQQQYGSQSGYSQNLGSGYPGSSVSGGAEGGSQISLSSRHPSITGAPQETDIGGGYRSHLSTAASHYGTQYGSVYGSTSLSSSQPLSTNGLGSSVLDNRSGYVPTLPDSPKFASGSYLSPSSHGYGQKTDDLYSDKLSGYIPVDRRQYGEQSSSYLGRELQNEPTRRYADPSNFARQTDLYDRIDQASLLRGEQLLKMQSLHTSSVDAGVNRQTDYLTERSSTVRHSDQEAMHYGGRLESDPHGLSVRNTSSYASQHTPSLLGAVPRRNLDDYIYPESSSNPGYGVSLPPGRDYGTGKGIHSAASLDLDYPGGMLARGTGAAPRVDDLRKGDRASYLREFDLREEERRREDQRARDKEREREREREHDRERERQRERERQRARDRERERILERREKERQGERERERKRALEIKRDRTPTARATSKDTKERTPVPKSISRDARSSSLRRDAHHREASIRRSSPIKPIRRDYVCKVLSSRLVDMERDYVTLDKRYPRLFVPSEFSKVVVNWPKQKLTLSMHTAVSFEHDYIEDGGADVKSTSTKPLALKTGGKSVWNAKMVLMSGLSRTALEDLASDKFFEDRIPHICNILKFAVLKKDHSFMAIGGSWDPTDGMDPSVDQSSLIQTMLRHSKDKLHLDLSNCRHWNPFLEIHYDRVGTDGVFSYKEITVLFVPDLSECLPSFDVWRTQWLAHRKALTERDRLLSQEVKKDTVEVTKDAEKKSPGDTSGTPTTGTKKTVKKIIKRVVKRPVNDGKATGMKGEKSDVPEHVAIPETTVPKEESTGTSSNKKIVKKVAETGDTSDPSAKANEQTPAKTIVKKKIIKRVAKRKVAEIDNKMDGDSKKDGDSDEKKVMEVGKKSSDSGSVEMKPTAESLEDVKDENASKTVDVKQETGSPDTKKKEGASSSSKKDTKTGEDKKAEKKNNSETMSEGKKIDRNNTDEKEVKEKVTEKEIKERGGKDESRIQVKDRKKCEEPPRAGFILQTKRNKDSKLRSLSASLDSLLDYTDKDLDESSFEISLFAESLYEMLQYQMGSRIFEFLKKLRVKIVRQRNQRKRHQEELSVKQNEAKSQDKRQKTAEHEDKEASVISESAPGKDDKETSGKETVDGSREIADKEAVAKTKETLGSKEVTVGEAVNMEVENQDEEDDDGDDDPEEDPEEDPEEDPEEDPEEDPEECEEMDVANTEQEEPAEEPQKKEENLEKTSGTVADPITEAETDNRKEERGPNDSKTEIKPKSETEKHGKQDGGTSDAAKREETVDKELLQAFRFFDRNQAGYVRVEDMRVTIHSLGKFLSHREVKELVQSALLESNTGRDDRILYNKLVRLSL

B1: FLAG-RSA1 (protein, UniProt F4IS91-1 1-1340)
chain: MHRDMYSSRGTGYGQQQYGSQSGYSQNLGSGYPGSSVSGGAEGGSQISLSSRHPSITGAPQETDIGGGYRSHLSTAASHYGTQYGSVYGSTSLSSSQPLSTNGLGSSVLDNRSGYVPTLPDSPKFASGSYLSPSSHGYGQKTDDLYSDKLSGYIPVDRRQYGEQSSSYLGRELQNEPTRRYADPSNFARQTDLYDRIDQASLLRGEQLLKMQSLHTSSVDAGVNRQTDYLTERSSTVRHSDQEAMHYGGRLESDPHGLSVRNTSSYASQHTPSLLGAVPRRNLDDYIYPESSSNPGYGVSLPPGRDYGTGKGIHSAASLDLDYPGGMLARGTGAAPRVDDLRKGDRASYLREFDLREEERRREDQRARDKEREREREREHDRERERQRERERQRARDRERERILERREKERQGERERERKRALEIKRDRTPTARATSKDTKERTPVPKSISRDARSSSLRRDAHHREASIRRSSPIKPIRRDYVCKVLSSRLVDMERDYVTLDKRYPRLFVPSEFSKVVVNWPKQKLTLSMHTAVSFEHDYIEDGGADVKSTSTKPLALKTGGKSVWNAKMVLMSGLSRTALEDLASDKFFEDRIPHICNILKFAVLKKDHSFMAIGGSWDPTDGMDPSVDQSSLIQTMLRHSKDKLHLDLSNCRHWNPFLEIHYDRVGTDGVFSYKEITVLFVPDLSECLPSFDVWRTQWLAHRKALTERDRLLSQEVKKDTVEVTKDAEKKSPGDTSGTPTTGTKKTVKKIIKRVVKRPVNDGKATGMKGEKSDVPEHVAIPETTVPKEESTGTSSNKKIVKKVAETGDTSDPSAKANEQTPAKTIVKKKIIKRVAKRKVAEIDNKMDGDSKKDGDSDEKKVMEVGKKSSDSGSVEMKPTAESLEDVKDENASKTVDVKQETGSPDTKKKEGASSSSKKDTKTGEDKKAEKKNNSETMSEGKKIDRNNTDEKEVKEKVTEKEIKERGGKDESRIQVKDRKKCEEPPRAGFILQTKRNKDSKLRSLSASLDSLLDYTDKDLDESSFEISLFAESLYEMLQYQMGSRIFEFLKKLRVKIVRQRNQRKRHQEELSVKQNEAKSQDKRQKTAEHEDKEASVISESAPGKDDKETSGKETVDGSREIADKEAVAKTKETLGSKEVTVGEAVNMEVENQDEEDDDGDDDPEEDPEEDPEEDPEEDPEEDPEECEEMDVANTEQEEPAEEPQKKEENLEKTSGTVADPITEAETDNRKEERGPNDSKTEIKPKSETEKHGKQDGGTSDAAKREETVDKELLQAFRFFDRNQAGYVRVEDMRVTIHSLGKFLSHREVKELVQSALLESNTGRDDRILYNKLVRLSL
B2: RITF1 homolog encoded by At3g17100, prey in pDEST22 (protein, UniProt Q9LSN7 1-230)
chain: MESISPVSNQLLQPTTTSSNSDRSRRKRKKKSSPSSVEKSPSPSISLEKWRSEKQQQIYSTKLVHALRELRISQQPSSSSSSSIPRGGRAVREVADRALAVAARGKTLWSRAILSKAVKLKFRKHKRQRISNPTTTTLTTGSIRSKKQRATVLRLKAKGLPAVQRKVKVLSRLVPGCRKQSLPVVLEETTDYIAAMEMQIRTMTAILSAVSSSPPPPTPGHEGGQTHMLG
B3: RITF1 homolog encoded by At3g05800, prey in pDEST22 (protein, UniProt Q9M9L6 1-211)
chain: MSSEQGNGSNPSTSPEVEGTKTIPFRRRLQRGQRVFAPKLMEALRRSRVSSEEAPVRHLSRRWRATTAQKVYSLKLYDALQRSRRSATVRDTADKVLATTARGATRWSRAILVSRFGTSLRRRRNTKPASALAAAIRGSGGSGRRRKLSAVGNRVRVLGGLVPGCRRTALPELLDETADYIAALEMQVRAMTALSKILSELQPSTNLGSAL
B4: RITF1 homolog encoded by At1g09250, prey in pDEST22 (protein, UniProt O80482 1-207)
chain: MVESLFPSIENTGESSRRKKPRISETAEAEIEARRVNEESLKRWKTNRVQQIYACKLVEALRRVRQRSSTTSNNETDKLVSGAAREIRDTADRVLAASARGTTRWSRAILASRVRAKLKKHRKAKKSTGNCKSRKGLTETNRIKLPAVERKLKILGRLVPGCRKVSVPNLLDEATDYIAALEMQVRAMEALAELLTAAAPRTTLTGT

How the values were obtained:
[1] = molecular target: T1, HA-RITF1 (Arabidopsis thaliana); assay: co-IP; FLAG-RSA1 and HA-RITF1 co-expressed in tobacco (Nicotiana benthamiana) leaves; extract (50 mM Tris-HCl pH 8.0, 150 mM NaCl, 2 mM EDTA, 1% Triton X-100) precipitated with anti-HA and protein A agarose, blot with anti-FLAG or anti-HA
[2] = molecular target: T2, RSA1, bait RSA1-pDEST32 (Arabidopsis thaliana); assay: two-hybrid; RSA1 with RITF1 homologs in pDEST22, yeast strain MaV203, x-gal assay and growth on SD-L-W-H+3-AT

Binder | binding [1] | binding [2]
B1 | binds | 
B2 |  | no binding
B3 |  | no binding
B4 |  | no binding
